Source: paper doi:10.1101/508887

Biological target: T1, KIF1C-BioID-3XFLAG (human) (UniProt O43896)
T1 sequence: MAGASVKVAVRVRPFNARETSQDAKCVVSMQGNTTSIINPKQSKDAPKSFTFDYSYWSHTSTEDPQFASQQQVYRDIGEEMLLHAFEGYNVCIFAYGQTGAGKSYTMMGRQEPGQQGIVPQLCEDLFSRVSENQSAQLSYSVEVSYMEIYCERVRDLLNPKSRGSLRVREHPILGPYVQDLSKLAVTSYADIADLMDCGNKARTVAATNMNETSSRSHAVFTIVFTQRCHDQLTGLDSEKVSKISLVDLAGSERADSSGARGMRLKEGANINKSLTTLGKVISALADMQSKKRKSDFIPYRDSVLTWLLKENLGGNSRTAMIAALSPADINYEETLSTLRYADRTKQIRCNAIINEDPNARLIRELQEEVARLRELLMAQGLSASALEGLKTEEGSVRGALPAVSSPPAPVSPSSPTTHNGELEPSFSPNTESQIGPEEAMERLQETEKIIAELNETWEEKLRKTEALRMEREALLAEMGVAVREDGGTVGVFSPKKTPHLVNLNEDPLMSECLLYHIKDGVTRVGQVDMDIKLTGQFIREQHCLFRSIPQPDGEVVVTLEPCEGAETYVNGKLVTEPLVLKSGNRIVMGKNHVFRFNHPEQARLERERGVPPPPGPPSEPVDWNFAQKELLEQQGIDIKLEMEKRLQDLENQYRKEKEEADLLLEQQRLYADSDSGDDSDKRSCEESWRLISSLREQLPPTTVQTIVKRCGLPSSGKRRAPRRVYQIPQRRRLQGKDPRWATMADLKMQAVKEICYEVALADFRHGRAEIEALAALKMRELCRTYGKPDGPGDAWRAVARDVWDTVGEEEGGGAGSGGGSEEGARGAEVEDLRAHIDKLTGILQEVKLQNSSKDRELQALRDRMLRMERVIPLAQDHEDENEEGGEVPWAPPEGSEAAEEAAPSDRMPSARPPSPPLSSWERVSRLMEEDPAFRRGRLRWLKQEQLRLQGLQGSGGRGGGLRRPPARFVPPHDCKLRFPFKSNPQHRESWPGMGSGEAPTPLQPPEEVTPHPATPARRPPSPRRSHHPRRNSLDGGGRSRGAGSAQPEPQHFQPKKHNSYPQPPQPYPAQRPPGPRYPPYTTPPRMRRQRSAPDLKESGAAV
Test: proximity labelling

B1: HOOK3 (endogenous) (protein, UniProt Q86VS8 1-718)
chain: MFSVESLERAELCESLLTWIQTFNVDAPCQTVEDLTNGVVMAQVLQKIDPAYFDENWLNRIKTEVGDNWRLKISNLKKILKGILDYNHEILGQQINDFTLPDVNLIGEHSDAAELGRMLQLILGCAVNCEQKQEYIQAIMMMEESVQHVVMTAIQELMSKESPVSAGNDAYVDLDRQLKKTTEELNEALSAKEEIAQRCHELDMQVAALQEEKSSLLAENQVLMERLNQSDSIEDPNSPAGRRHLQLQTQLEQLQEETFRLEAAKDDYRIRCEELEKEISELRQQNDELTTLADEAQSLKDEIDVLRHSSDKVSKLEGQVESYKKKLEDLGDLRRQVKLLEEKNTMYMQNTVSLEEELRKANAARSQLETYKRQVVELQNRLSEESKKADKLDFEYKRLKEKVDSLQKEKDRLRTERDSLKETIEELRCVQAQEGQLTTQGLMPLGSQESSDSLAAEIVTPEIREKLIRLQHENKMLKLNQEGSDNEKIALLQSLLDDANLRKNELETENRLVNQRLLEVQSQVEELQKSLQDQGSKAEDSVLLKKKLEEHLEKLHEANNELQKKRAIIEDLEPRFNNSSLKIEELQEALRKKEEEMKQMEERYKKYLEKAKSVIRTLDPKQNQGAAPEIQALKNQLQERDRLFHSLEKEYEKTKSQREMEEKYIVSAWYNMGMTLHKKAAEDRLASTGSGQSFLARQRQATSSRRSYPGHVQPATAR
binding: binds

Results are given in words; binding and its absence hold for the method and conditions named. Binding seen in cells or lysates may run through a third protein. Here binding means that the protein was enriched with, or labelled near, the bait; the list need not be complete. Sequences can lack the tags named with a protein.
